Some of the results follow. Many values rest on one well or one pass, so single values are uncertain.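 The apoptosis fraction was the count of cleaved-PARP antibody-stained nuclei relative to all DNA-stained nuclei, imaged in 1,536-well plates. Screening doses were set so most cells survived, and baseline and induced cleaved-PARP levels vary greatly across cell lines.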
tested on: CBRC014 (line from a melanoma biopsy); assay: cleaved PARP positive nuclei fraction relative to DMSO control; melanoma cells; higher = more apoptosis; conditions: library dose: low library concentration; 72 h

Compound	cleaved PARP positive nuclei fraction
OCCn1cc(-c2cnc3nnn(Cc4ccc5ncccc5c4)c3n2)cn1 + Cc1cc([N+](=O)[O-])ccc1NS(=O)(=O)c1cc(Cl)ccc1Cl [FH535] (first compound 1 µM, partner dose 1 µM)	136%
Nc1cccc2c1CN(C1CCC(=O)NC1=O)C2=O (stereo not drawn) [lenalidomide] + CCN(CC)CCCCNc1ncc2cc(-c3cc(OC)cc(OC)c3)c(NC(=O)NC(C)(C)C)nc2n1 [PD173074] (first compound 1 µM, partner dose 0.1 µM)	106%
C[C@@H]1CCN(C(=O)CC#N)C[C@@H]1N(C)c1ncnc2[nH]ccc12 + O=C(O)C(=O)Nc1sc2c(c1C(=O)O)CCNC2 [TCS401] (first compound 1 µM, partner dose 1.66667 µM)	83.4%
OCCn1cc(-c2cnc3nnn(Cc4ccc5ncccc5c4)c3n2)cn1 + COc1ccc2c(c1)CCC1C2CCC2(C)C(NCCCCCCN3C(=O)C=CC3=O)CCC12 [U73122] (first compound 1 µM, partner dose 0.4 µM)	98%
Cc1cc(N2CCOCC2)cc2[nH]c(-c3c(NC[C@@H](O)c4cccc(Cl)c4)cc[nH]c3=O)nc12 + O=C(Nc1ccccc1)c1cc([N+](=O)[O-])ccc1Cl [GW9662] (first compound 0.2 µM, partner dose 2 µM)	120%
Nc1cccc2c1CN(C1CCC(=O)NC1=O)C2=O (stereo not drawn) [lenalidomide] + O=C(Nc1ccccc1)c1cc([N+](=O)[O-])ccc1Cl [GW9662] (first compound 1 µM, partner dose 2 µM)	96.6%
CC(C)(C)c1cnc(CSc2cnc(NC(=O)C3CCNCC3)s2)o1 + Oc1cc(-c2nc(-c3ccccc3)[nH]c2-c2ccncc2)ccc1Cl [L779450] (first compound 0.01 µM, partner dose 0.2 µM)	98.8%
Cc1nc(Nc2ncc(C(=O)Nc3c(C)cccc3Cl)s2)cc(N2CCN(CCO)CC2)n1 [dasatanib] + COC(=O)c1sccc1S(=O)(=O)Nc1ccc(Nc2ccccc2)cc1OC [GSK0660] (first compound 0.004 µM, partner dose 1 µM)	111%
C#Cc1cccc(Nc2ncnc3cc(OCCOC)c(OCCOC)cc23)c1 [erlotinib] + O=C(O)C(=O)Nc1sc2c(c1C(=O)O)CCNC2 [TCS401] (first compound 0.8 µM, partner dose 1.66667 µM)	94.4%
Cn1c(Nc2ccc(C(F)(F)F)cc2)nc2cc(Oc3ccnc(-c4ncc(C(F)(F)F)[nH]4)c3)ccc21 + CCCCCCCCCCCC1=C(O)C(=O)C=C(O)C1=O [Embelin] (first compound 0.08 µM, partner dose 1.2 µM)	105%
Cn1cncc1[C@@](N)(c1ccc(Cl)cc1)c1ccc2c(c1)c(-c1cccc(Cl)c1)cc(=O)n2C [tipifarnib] + COc1cc2ncnc(Nc3ccc(Oc4ccccc4)cc3)c2cc1OC [SrcI1] (first compound 0.01 µM, partner dose 2 µM)	111%
C#Cc1cccc(Nc2ncnc3cc(OCCOC)c(OCCOC)cc23)c1 [erlotinib] + COc1cc2ncnc(Nc3ccc(Oc4ccccc4)cc3)c2cc1OC [SrcI1] (first compound 0.8 µM, partner dose 2 µM)	92.8%
Nc1cccc2c1CN(C1CCC(=O)NC1=O)C2=O (stereo not drawn) [lenalidomide] + Cn1cc(/C=C2\C(=O)Nc3cccnc32)c2ccccc21 [GW441756] (first compound 1 µM, partner dose 0.4 µM)	98.8%
Cc1nc(Nc2ncc(C(=O)Nc3c(C)cccc3Cl)s2)cc(N2CCN(CCO)CC2)n1 [dasatanib] + c1cc(-c2cnn3cc(-c4ccc(OCCN5CCCCC5)cc4)cnc23)ccn1 [Dorsomorphin] (first compound 0.004 µM, partner dose 0.4 µM)	116%
Cn1cncc1[C@@](N)(c1ccc(Cl)cc1)c1ccc2c(c1)c(-c1cccc(Cl)c1)cc(=O)n2C [tipifarnib] + O=C(O)C(=O)Nc1sc2c(c1C(=O)O)CCNC2 [TCS401] (first compound 0.01 µM, partner dose 1.66667 µM)	91.2%
Cn1c(Nc2ccc(C(F)(F)F)cc2)nc2cc(Oc3ccnc(-c4ncc(C(F)(F)F)[nH]4)c3)ccc21 + O=C(Nc1ccccc1)c1cc([N+](=O)[O-])ccc1Cl [GW9662] (first compound 0.08 µM, partner dose 2 µM)	114%
Cn1cncc1[C@@](N)(c1ccc(Cl)cc1)c1ccc2c(c1)c(-c1cccc(Cl)c1)cc(=O)n2C [tipifarnib] + Oc1nc(-c2ccc(C(F)(F)F)cc2)nc2c1CSCC2 [XAV939] (first compound 0.01 µM, partner dose 2 µM)	103%
Cn1nnc2c(C(N)=O)ncn2c1=O [temozolomide] + COc1ccc2c(c1)CCC1C2CCC2(C)C(NCCCCCCN3C(=O)C=CC3=O)CCC12 [U73122] (first compound 2 µM, partner dose 0.4 µM)	115%

3 neighbouring entries from above, for reference:
Compound	cleaved PARP positive nuclei fraction
Nc1cccc2c1CN(C1CCC(=O)NC1=O)C2=O (stereo not drawn) [lenalidomide] + Cn1cc(/C=C2\C(=O)Nc3cccnc32)c2ccccc21 [GW441756] (first compound 1 µM, partner dose 0.4 µM)	98.8%
Cc1nc(Nc2ncc(C(=O)Nc3c(C)cccc3Cl)s2)cc(N2CCN(CCO)CC2)n1 [dasatanib] + c1cc(-c2cnn3cc(-c4ccc(OCCN5CCCCC5)cc4)cnc23)ccn1 [Dorsomorphin] (first compound 0.004 µM, partner dose 0.4 µM)	116%
Cn1cncc1[C@@](N)(c1ccc(Cl)cc1)c1ccc2c(c1)c(-c1cccc(Cl)c1)cc(=O)n2C [tipifarnib] + O=C(O)C(=O)Nc1sc2c(c1C(=O)O)CCNC2 [TCS401] (first compound 0.01 µM, partner dose 1.66667 µM)	91.2%
